PubChem BioAssay AID504804 – Drosophila RNAi Screening Center | 2011
Purpose: 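Knock-downs shielding fly cells from apoptosis caused by DNA damage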 (primary screen). Cells: Drosophila Kc cells. Knock-down reagent: long dsRNA against Drosophila genes, 0.5 µg dsRNA per well. Duration: 96 h (48 h knock-down, then 48 h drug). Treatment: doxorubicin 5 µg/ml for 48 h, added 48 h after dsRNA. Measured: 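Luminescent ATP counts per replicate, not normalised, reflecting viable cells after 48 h dsRNA knock-down followed by 48 h of 5 µg/ml doxorubicin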. Scale: raw ATP luminescence: higher = more viable cells, protection from doxorubicin. Hit rule: 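z-score of 2 or more over plate mean in both duplicates, retained only when retests and separate dsRNAs confirm the protection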.
The screen tested about 19,000 reagents; shown is an unselected part of those with a known target gene and a result. In the full data, 47 (0.25%) are marked active. 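Signals are raw, not normalised; exact z-scores behind calls not deposited; actives needed confirmation, so some wells reaching 2 SD are inactive.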 Reagents against one gene are numbered here. A plus sign joins genes that one reagent is predicted to hit.

Kah scored raw ATP luminescence, replicate 1 = 1.72e5; raw ATP luminescence, replicate 2 = 1.47e5; inactive.
Knock-down of RpS15Ab + RpS15Aa #1 resulted in: raw ATP luminescence, replicate 1 = 20647; raw ATP luminescence, replicate 2 = 30347; inactive.
Depletion of RpS15Ab + RpS15Aa #2 resulted in: raw ATP luminescence, replicate 1 = 1.49e5; raw ATP luminescence, replicate 2 = 1.54e5; inactive.
Knock-down of CG32576 came out at: raw ATP luminescence, replicate 1 = 2.53e5; raw ATP luminescence, replicate 2 = 2.81e5; inactive.
CG2765 gave raw ATP luminescence, replicate 1 = 51190; raw ATP luminescence, replicate 2 = 48120; inactive.

Part of the list above, set out differently:
CG32576
- raw ATP luminescence, replicate 1: 2.53e5
- raw ATP luminescence, replicate 2: 2.81e5
- activity call: inactive

CG2765
- raw ATP luminescence, replicate 1: 51190
- raw ATP luminescence, replicate 2: 48120
- activity call: inactive

Next results follow.
For CG6785 the deposit lists raw ATP luminescence, replicate 1 = 83213; raw ATP luminescence, replicate 2 = 58423; inactive.
Depletion of CG9747 resulted in: raw ATP luminescence, replicate 1 = 1.88e5; raw ATP luminescence, replicate 2 = 1.44e5; inactive.
For Cyp304a1, the values are raw ATP luminescence, replicate 1 = 98550; raw ATP luminescence, replicate 2 = 81650; inactive.
Idh3a showed raw ATP luminescence, replicate 1 = 3.47e5; raw ATP luminescence, replicate 2 = 2.99e5; inactive.
CG14837 gave raw ATP luminescence, replicate 1 = 92790; raw ATP luminescence, replicate 2 = 86870; inactive.
Depletion of scramb1 #1 resulted in: raw ATP luminescence, replicate 1 = 67903; raw ATP luminescence, replicate 2 = 71310; inactive.
scramb1 #2 scored raw ATP luminescence, replicate 1 = 67707; raw ATP luminescence, replicate 2 = 68523; inactive.
Knock-down of scramb1 #3 resulted in: raw ATP luminescence, replicate 1 = 71327; raw ATP luminescence, replicate 2 = 70047; inactive.
